Test results as given in article doi:10.1101/2024.02.14.580406.
No constants are given. Whether binding was seen depends on the method and setting. Binding seen in cells or lysates may run through a third protein. Some entries that bind do so weakly or less than the wild type. For some assays here: Sequences can lack the tags named with a protein.

Sequences of proteins named here, by UniProt entry; tags and fusion partners are left off. A change or cut given only in a name is not applied to a line headed by its entry.
UniProt Q9H792: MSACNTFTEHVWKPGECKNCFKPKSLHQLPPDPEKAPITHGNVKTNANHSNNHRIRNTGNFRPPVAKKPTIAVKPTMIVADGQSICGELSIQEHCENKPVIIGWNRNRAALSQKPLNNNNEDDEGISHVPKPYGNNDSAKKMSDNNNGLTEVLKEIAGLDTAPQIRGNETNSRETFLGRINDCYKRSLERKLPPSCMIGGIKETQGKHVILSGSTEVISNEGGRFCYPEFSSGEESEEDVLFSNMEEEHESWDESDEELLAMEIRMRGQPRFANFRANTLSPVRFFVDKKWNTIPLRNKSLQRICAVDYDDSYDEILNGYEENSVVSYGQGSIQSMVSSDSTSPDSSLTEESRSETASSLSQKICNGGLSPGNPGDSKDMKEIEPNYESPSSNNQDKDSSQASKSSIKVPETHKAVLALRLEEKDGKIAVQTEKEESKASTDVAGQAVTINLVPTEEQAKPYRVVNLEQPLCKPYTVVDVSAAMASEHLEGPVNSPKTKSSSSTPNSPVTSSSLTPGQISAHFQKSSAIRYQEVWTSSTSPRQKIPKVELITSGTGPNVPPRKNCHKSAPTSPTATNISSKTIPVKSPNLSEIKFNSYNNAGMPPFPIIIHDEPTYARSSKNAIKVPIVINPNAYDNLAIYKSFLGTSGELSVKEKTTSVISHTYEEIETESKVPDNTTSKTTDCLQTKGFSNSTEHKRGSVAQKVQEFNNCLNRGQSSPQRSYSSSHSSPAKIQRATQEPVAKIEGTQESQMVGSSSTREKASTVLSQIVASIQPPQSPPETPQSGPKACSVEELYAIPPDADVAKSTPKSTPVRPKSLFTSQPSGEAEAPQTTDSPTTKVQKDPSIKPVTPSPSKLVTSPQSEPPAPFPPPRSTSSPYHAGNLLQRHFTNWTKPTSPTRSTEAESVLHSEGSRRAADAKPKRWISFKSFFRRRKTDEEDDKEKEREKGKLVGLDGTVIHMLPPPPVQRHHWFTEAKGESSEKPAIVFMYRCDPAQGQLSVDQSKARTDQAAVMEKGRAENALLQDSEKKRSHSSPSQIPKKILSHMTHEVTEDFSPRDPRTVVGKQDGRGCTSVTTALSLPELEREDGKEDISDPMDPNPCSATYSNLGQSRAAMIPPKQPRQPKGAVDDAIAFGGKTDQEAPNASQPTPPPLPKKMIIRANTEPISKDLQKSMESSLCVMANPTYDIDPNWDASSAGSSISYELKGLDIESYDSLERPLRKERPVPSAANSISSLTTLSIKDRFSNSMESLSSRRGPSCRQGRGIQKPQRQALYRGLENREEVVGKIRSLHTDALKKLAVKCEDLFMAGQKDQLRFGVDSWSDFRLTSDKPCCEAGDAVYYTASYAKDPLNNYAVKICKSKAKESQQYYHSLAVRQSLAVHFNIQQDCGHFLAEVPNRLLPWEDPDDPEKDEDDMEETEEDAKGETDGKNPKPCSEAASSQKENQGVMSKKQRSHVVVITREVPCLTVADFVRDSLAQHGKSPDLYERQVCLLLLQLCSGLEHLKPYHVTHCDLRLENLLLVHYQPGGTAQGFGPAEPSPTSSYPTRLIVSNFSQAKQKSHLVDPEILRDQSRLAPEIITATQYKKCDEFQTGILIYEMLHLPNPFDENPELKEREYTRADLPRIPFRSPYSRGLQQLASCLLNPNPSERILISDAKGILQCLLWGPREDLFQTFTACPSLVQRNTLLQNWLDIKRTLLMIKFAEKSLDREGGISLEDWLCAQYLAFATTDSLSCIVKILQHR
UniProt P46109: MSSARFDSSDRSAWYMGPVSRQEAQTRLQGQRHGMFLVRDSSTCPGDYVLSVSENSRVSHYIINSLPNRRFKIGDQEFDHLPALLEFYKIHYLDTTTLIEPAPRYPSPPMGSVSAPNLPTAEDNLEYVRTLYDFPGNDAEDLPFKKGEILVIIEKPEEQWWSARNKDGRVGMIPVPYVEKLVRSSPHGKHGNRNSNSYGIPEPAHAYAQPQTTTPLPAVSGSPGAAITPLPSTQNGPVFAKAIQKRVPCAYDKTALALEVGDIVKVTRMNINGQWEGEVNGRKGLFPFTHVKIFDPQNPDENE
UniProt P62993: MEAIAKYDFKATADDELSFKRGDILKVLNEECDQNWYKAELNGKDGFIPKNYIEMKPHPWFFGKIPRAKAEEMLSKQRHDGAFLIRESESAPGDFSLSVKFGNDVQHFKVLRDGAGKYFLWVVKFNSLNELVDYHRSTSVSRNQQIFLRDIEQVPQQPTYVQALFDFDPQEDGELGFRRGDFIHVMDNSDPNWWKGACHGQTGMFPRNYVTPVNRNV

How the values were obtained:
[1] = molecular target: Flag-tagged PEAK1, wildtype (human) (UniProt Q9H792); assay: co-IP
[2] = molecular target: Flag-tagged PEAK1 R297A/L301A/R303A (human) (UniProt Q9H792); assay: co-IP
[3] = molecular target: Flag-tagged PEAK1 R297E/R303E (human) (UniProt Q9H792); assay: co-IP
[4] = molecular target: T1, V1- or V2-labeled fusion of PEAK2 (UniProt Q86YV5); assay: split reporter
T1 sequence: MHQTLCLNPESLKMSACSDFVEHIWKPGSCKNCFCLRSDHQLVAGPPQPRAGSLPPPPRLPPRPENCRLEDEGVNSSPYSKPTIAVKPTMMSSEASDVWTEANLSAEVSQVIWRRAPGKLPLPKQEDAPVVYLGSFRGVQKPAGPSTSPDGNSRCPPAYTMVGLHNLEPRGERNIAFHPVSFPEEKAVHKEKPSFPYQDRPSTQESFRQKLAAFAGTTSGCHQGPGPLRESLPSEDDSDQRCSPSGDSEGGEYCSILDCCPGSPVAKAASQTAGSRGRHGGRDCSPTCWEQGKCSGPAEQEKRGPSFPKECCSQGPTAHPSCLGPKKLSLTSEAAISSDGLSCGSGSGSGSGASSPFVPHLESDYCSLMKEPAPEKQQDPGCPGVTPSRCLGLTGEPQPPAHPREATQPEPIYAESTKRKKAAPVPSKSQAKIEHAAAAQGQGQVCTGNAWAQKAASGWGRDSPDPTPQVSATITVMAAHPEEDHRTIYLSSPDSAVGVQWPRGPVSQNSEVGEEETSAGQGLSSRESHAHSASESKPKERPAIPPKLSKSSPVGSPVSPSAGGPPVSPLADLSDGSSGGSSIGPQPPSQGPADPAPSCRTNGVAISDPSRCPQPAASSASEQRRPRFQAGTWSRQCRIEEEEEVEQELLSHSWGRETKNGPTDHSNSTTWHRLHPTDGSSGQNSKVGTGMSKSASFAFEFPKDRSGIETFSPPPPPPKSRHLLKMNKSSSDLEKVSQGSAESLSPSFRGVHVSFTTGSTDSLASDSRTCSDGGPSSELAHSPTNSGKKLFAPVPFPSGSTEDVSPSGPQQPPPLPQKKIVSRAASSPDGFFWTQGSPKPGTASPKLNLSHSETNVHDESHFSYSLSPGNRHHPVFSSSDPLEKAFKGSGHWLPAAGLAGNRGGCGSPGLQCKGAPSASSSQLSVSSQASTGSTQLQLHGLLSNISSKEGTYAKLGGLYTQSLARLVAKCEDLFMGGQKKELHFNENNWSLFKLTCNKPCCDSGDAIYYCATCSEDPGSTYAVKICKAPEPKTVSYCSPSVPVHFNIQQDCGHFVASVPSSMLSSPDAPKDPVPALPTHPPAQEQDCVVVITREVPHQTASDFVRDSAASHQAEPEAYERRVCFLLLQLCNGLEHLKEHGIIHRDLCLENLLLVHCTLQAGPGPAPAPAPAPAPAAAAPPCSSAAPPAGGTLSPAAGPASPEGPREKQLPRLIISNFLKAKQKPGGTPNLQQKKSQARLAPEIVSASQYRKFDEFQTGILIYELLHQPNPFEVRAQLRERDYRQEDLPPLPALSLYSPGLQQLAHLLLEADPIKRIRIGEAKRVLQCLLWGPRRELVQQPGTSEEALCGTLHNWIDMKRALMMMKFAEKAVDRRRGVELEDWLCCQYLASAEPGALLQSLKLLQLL

[5] = molecular target: V1- or V2-labeled fusion of PEAK1 (human) (UniProt Q9H792); assay: split reporter

Row | binding [1] | binding [2] | binding [3] | binding [4] | binding [5] | Substance
1 | binds | binds | binds | – | – | Crk-L (from UniProt P46109 1-303)
2 | binds | binds | binds | – | – | Grb2 (from UniProt P62993 1-217)
3 | – | – | – | binds | binds | V1- or V2-labeled fusion of PEAK1 (from UniProt Q9H792 1-1746)
